Data reported in publication PMC5732150.
Results are given in words; binding and its absence hold for the method and conditions named. Binding seen in cells or lysates may run through a third protein. Some binding calls cover weakened binding; strength is not graded here.

Protein sequences, listed by entry. Tags and fused reporters are not part of them.
UniProt P60766: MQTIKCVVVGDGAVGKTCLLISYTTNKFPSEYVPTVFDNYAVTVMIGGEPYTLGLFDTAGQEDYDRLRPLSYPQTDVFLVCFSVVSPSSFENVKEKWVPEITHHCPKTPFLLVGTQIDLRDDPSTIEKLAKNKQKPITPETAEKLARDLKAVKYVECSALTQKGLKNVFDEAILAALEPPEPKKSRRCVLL
UniProt Q9WTI7: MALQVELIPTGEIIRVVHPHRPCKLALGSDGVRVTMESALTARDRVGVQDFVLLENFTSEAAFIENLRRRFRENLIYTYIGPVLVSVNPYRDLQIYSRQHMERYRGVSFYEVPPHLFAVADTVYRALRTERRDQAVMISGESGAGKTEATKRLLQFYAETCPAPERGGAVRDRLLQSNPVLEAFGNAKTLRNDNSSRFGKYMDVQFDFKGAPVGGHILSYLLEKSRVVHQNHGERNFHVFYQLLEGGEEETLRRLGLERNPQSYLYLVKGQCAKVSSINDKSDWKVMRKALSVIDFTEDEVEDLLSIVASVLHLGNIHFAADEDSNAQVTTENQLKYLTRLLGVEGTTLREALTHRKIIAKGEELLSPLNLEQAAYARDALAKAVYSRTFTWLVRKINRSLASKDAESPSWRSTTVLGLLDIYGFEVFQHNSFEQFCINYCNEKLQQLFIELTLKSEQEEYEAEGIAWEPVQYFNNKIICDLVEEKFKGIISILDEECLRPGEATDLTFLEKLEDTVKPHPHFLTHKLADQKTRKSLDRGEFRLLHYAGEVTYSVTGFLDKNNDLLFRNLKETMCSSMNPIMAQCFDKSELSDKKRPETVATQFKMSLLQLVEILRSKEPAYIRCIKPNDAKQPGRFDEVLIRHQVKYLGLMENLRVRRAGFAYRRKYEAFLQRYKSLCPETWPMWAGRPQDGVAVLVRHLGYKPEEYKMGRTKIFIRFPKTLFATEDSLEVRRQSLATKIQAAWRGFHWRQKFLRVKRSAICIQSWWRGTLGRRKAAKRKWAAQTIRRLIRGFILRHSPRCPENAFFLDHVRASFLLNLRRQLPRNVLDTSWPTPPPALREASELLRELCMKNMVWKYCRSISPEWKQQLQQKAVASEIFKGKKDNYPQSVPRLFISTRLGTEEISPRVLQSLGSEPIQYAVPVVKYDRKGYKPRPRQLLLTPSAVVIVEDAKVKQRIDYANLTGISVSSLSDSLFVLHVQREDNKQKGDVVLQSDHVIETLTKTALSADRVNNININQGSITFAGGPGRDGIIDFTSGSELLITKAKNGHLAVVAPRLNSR
UniProt Q9QUI0: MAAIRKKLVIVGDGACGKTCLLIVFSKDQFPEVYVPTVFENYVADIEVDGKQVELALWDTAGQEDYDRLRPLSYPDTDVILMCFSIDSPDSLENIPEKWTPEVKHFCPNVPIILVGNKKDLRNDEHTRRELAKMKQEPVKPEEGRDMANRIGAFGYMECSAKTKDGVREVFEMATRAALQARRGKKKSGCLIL

Each substance was assayed against T1, CD44 (mouse (endogenous in splenic B lymphocytes)) (UniProt P15379) (assay: co-IP; Lysates (RIPA buffer, 1% Triton X-100) of resting, LPS plus IL-4 activated, HA-stimulated or CD44-capped mouse B lymphocytes; precipitated with α-Myo1g or NIM-R8 (α-CD44), 4 h at 4°C, protein G-agarose; Western blot; CD44 precipitates compared between WT and Myo1g-deficient cells).
T1 sequence: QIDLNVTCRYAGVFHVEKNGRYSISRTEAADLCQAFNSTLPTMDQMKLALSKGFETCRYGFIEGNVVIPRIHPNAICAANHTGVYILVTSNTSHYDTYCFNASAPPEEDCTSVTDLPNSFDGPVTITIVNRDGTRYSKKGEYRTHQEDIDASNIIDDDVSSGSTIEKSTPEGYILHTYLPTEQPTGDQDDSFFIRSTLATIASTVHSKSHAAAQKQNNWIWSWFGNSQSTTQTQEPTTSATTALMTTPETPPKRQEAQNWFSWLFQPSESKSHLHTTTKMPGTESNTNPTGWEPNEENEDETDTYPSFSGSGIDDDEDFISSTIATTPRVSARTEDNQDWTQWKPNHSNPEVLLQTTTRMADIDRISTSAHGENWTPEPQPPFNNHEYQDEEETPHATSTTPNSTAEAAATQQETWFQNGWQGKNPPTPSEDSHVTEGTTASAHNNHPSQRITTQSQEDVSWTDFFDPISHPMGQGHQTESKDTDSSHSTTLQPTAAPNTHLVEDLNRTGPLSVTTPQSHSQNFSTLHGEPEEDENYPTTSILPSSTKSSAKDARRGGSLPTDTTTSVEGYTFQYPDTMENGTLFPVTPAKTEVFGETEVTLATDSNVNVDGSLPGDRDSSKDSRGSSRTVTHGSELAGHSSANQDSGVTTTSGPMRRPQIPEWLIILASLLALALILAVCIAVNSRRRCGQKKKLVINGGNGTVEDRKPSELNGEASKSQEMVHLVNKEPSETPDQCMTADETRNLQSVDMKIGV

binding, binds:
CDC42 (from UniProt P60766 1-191), Myo1c (from UniProt Q9WTI7 1-1063), RhoA (from UniProt Q9QUI0 1-193)
